Measurements published in the supplement of paper PMC8728848.
The other results are listed elsewhere or left out.

What was measured:
Assay in all cases: glycan array binding signal (z-score within array); higher = stronger binding
Conditions in all cases: glycan notation: IUPAC condensed, linker removed
[1] = target: Fuc(a1-2)Gal(b1-4)GlcNAc(b1-3)Gal(b1-4)GlcNAc(b1-2)Man(a1-3)[Fuc(a1-2)Gal(b1-4)GlcNAc(b1-3)Gal(b1-4)GlcNAc(b1-2)Man(a1-6)]Man(b1-4)GlcNAc(b1-4)GlcNAc
Procedure, shortened: (§1)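 Glycan array binding is given as a within-array Z-score, which can be read as non-binding when negative. The arrays, 3228 of them, came from the Consortium for Functional Glycomics database and were retained only where the protein sequence was available. Z-scores were averaged across arrays of the same protein sequence at different concentrations or buffers and across linkers.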

[2] = target: Fuc(a1-2)Gal(b1-4)GlcNAc(b1-3)Gal(b1-4)GlcNAc(b1-3)Gal(b1-4)GlcNAc
Procedure, shortened: as §1

[3] = target: Fuc(a1-2)Gal(b1-4)GlcNAc(b1-3)GalNAc
Procedure, shortened: as §1

[4] = target: Fuc(a1-2)Gal(b1-4)GlcNAc(b1-3)[Fuc(a1-2)Gal(b1-4)GlcNAc(b1-6)]GalNAc
Procedure, shortened: as §1

[5] = target: Fuc(a1-2)Gal(b1-4)GlcNAc(b1-3)[Fuc(a1-3)[Gal(b1-4)]GlcNAc(b1-6)]Gal(b1-4)Glc
Procedure, shortened: as §1

[6] = target: Fuc(a1-2)Gal(b1-4)GlcNAc(b1-6)GalNAc
Procedure, shortened: as §1

[7] = target: Fuc(a1-2)Gal(b1-4)GlcNAc6S
Procedure, shortened: as §1

[8] = target: Fuc(a1-2)Gal(b1-4)[Fuc(a1-3)]GlcNAc
Procedure, shortened: as §1

[9] = target: Fuc(a1-2)Gal(b1-4)[Fuc(a1-3)]GlcNAc(b1-2)Man(a1-3)[Fuc(a1-2)Gal(b1-4)[Fuc(a1-3)]GlcNAc(b1-2)Man(a1-6)]Man(b1-4)GlcNAc(b1-4)[Fuc(a1-6)]GlcNAc
Procedure, shortened: as §1

[10] = target: Fuc(a1-2)Gal(b1-4)[Fuc(a1-3)]GlcNAc(b1-2)[Fuc(a1-2)Gal(b1-4)[Fuc(a1-3)]GlcNAc(b1-4)]Man(a1-3)[Fuc(a1-2)Gal(b1-4)[Fuc(a1-3)]GlcNAc(b1-2)Man(a1-6)]Man(b1-4)GlcNAc(b1-4)GlcNAc
Procedure, shortened: as §1

[11] = target: Fuc(a1-2)Gal(b1-4)[Fuc(a1-3)]GlcNAc(b1-3)Gal(b1-4)[Fuc(a1-3)]GlcNAc
Procedure, shortened: as §1

[12] = target: Fuc(a1-2)Gal(b1-4)[Fuc(a1-3)]GlcNAc(b1-3)Gal(b1-4)[Fuc(a1-3)]GlcNAc(b1-3)Gal(b1-4)[Fuc(a1-3)]GlcNAc
Procedure, shortened: as §1

[13] = target: Fuc(a1-2)Gal(b1-4)[Fuc(a1-3)]GlcNAc(b1-3)GalNAc
Procedure, shortened: as §1

[14] = target: Fuc(a1-2)Gal(b1-4)[Fuc(a1-3)]GlcNAc(b1-3)[Neu5Ac(a2-6)Gal(b1-4)GlcNAc(b1-6)]Gal(b1-4)Glc
Procedure, shortened: as §1

[15] = target: Fuc(a1-2)Gal3S(b1-4)GlcNAc
Procedure, shortened: as §1

[16] = target: Fuc(a1-2)Gal6S(b1-3)GlcNAc
Procedure, shortened: as §1

[17] = target: Fuc(a1-2)Gal6S(b1-3)GlcNAc6S
Procedure, shortened: as §1

[18] = target: Fuc(a1-2)Gal6S(b1-4)Glc
Procedure, shortened: as §1

[19] = target: Fuc(a1-2)Gal6S(b1-4)Glc6S
Procedure, shortened: as §1

[20] = target: Fuc(a1-2)[Gal(a1-3)]Gal
Procedure, shortened: as §1

[21] = target: Fuc(a1-2)[Gal(a1-3)]Gal(b1-3)GalNAc
Procedure, shortened: as §1

[22] = target: Fuc(a1-2)[Gal(a1-3)]Gal(b1-3)GalNAc(b1-3)Gal(a1-4)Gal(b1-4)Glc
Procedure, shortened: as §1

[23] = target: Fuc(a1-2)[Gal(a1-3)]Gal(b1-3)GlcNAc
Procedure, shortened: as §1

[24] = target: Fuc(a1-2)[Gal(a1-3)]Gal(b1-3)GlcNAc(b1-2)Man(a1-3)[Fuc(a1-2)[Gal(a1-3)]Gal(b1-3)GlcNAc(b1-2)Man(a1-6)]Man(b1-4)GlcNAc(b1-4)GlcNAc
Procedure, shortened: as §1

[25] = target: Fuc(a1-2)[Gal(a1-3)]Gal(b1-3)GlcNAc(b1-2)Man(a1-3)[Fuc(a1-2)[Gal(a1-3)]Gal(b1-3)GlcNAc(b1-2)Man(a1-6)]Man(b1-4)GlcNAc(b1-4)[Fuc(a1-6)]GlcNAc
Procedure, shortened: as §1

[26] = target: Fuc(a1-2)[Gal(a1-3)]Gal(b1-3)GlcNAc(b1-3)GalNAc
Procedure, shortened: as §1

[27] = target: Fuc(a1-2)[Gal(a1-3)]Gal(b1-3)GlcNAc(b1-6)GalNAc
Procedure, shortened: as §1

[28] = target: Fuc(a1-2)[Gal(a1-3)]Gal(b1-4)Glc
Procedure, shortened: as §1

[29] = target: Fuc(a1-2)[Gal(a1-3)]Gal(b1-4)GlcNAc
Procedure, shortened: as §1

[30] = target: Fuc(a1-2)[Gal(a1-3)]Gal(b1-4)GlcNAc(b1-2)Man
Procedure, shortened: as §1

B1: HA-00510 (Pseudomonas aeruginosa), Q02V39_PSEAB (protein)
chain: GVPIVNIATPNGAGLSNNHFRDYNVGANGLILNNATGKTQGTQLGGIILGNPNLKGQAAQVILNQVTGGNRSTLAGYTEVAGQSARVIVANPHGITCQGCGFINTPRATLTTGKPIMDGQRLERFQVDGGDIVVEGAELNVGNLEQFDLITRSAKLNAKLYAKNLNIVTGRNDVQADSLQATPRAADGSEKPQLAIDSSALGGMYAGAIRLVGTEQGVGVKLAGDMAASGGDIRIDASGKLSLAQASSQGDLKIAAQAVELNGKTYAGGSAEIRSAEELVNRQS
Question: What does the source list for B1?
Answer: glycan array binding signal (z-score) [1]: 0.544; glycan array binding signal (z-score) [2]: 0.262; glycan array binding signal (z-score) [3]: 1.33; glycan array binding signal (z-score) [4]: -0.394; glycan array binding signal (z-score) [5]: 0.07; glycan array binding signal (z-score) [6]: 0.473; glycan array binding signal (z-score) [7]: -0.534; glycan array binding signal (z-score) [8]: -0.457; glycan array binding signal (z-score) [9]: -0.707; glycan array binding signal (z-score) [10]: 1.48; glycan array binding signal (z-score) [11]: -0.398; glycan array binding signal (z-score) [12]: 0.223; glycan array binding signal (z-score) [13]: 1.16; glycan array binding signal (z-score) [14]: -0.273; glycan array binding signal (z-score) [15]: -0.764; glycan array binding signal (z-score) [16]: -1.39; glycan array binding signal (z-score) [17]: -0.586; glycan array binding signal (z-score) [18]: -0.936; glycan array binding signal (z-score) [19]: -0.779; glycan array binding signal (z-score) [20]: -0.249; glycan array binding signal (z-score) [21]: 0.265; glycan array binding signal (z-score) [22]: -0.362; glycan array binding signal (z-score) [23]: -1.54; glycan array binding signal (z-score) [24]: 0.125; glycan array binding signal (z-score) [25]: 0.496; glycan array binding signal (z-score) [26]: -0.899; glycan array binding signal (z-score) [27]: -0.268; glycan array binding signal (z-score) [28]: -0.228; glycan array binding signal (z-score) [29]: -0.488; glycan array binding signal (z-score) [30]: 0.102
